These are yes or no findings as the source states them, for the method shown. Some entries that bind do so weakly or less than the wild type. Sequences can lack the tags named with a protein.

For this assay, the target named is T1, LDCAM (clone isolated from the WI-26 cell line expression library, expressed on transfected CV1/EBNA cells) (human) (UniProt Q9BY67).
T1 sequence: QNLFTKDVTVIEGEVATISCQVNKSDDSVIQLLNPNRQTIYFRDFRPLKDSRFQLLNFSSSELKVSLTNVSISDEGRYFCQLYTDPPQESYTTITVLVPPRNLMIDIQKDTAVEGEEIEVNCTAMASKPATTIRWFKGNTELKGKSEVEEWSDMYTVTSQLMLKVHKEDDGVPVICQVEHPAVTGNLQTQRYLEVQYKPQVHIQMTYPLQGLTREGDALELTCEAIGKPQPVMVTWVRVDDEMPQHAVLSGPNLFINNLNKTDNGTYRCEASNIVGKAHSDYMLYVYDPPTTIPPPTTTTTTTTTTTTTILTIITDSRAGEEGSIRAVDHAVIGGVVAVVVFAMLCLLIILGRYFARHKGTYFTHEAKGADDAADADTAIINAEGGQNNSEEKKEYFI
Briefly: expression cloning: CV1/EBNA cells transfected with the WI-26 cDNA clone, incubated with 1 ug/mL B7L-1/Fc, detected with 125I-labeled anti-human F(ab)2 and autoradiography.

B1: human B7L-1/Fc fusion protein (Fc fusion, not shown: a dimerising Fc or GST)
chain: PGGANLSQDGYWQEQDLELGTLAPLDEAISSTVWSSPDMLASQDSQPWTSDETVVAGGTVVLKCQVKDHEDSSLQWSNPAQQTLYFGEKRALRDNRIQLVTSTPHELSISISNVALADEGEYTCSIFTMPVRTAKSLVTVLGIPQKPIITGYKSSLREKDTATLNCQSSGSKPAARLTWRKGDQELHGEPTRIQEDPNGKTFTVSSSVTFQVTREDDGASIVCSVNHESLKGADRSTSQRIEVLYTPTAMIRPDPPHPREGQKLLLHCEGRGNPVPQQYLWEKEGSVPPLKMTQESALIFPFLNKSDSGTYGCTATSNMGSYKAYYTLNVNDPSPVPSSSSTYH
In the case of B1, the binding result is reported as “binds”.
